# Data as given in PubChem BioAssay AID743121 (NCATS, 2013)
# Aim: 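Genes whose silencing strengthens cell killing by camptothecin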 (primary screen)
# Cells: MDA-MB-231 cells, a human breast cancer line
# Reagent: single siRNA against human genes, 20 nM siRNA (0.8 pmol per well)
# Time to read-out: 120 h (drug added 48 h after transfection, read 72 h later)
# Treatment: camptothecin 20 nM (about EC30) for 72 h; vehicle 0.1% DMSO in parallel plates
# Detection: 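CellTiter-Glo ATP signal, scaled to control siRNA as percent viability; sensitisation given as log2 of untreated divided by camptothecin-treated viability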
# Scale: log2 vehicle/camptothecin viability: higher = stronger sensitisation to camptothecin
# Rule for the call: 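Each gene scored by redundant siRNA activity (RSA) over its individual siRNA ratios; a gene is called active at p < 0.001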
# Shown is an unselected part of about 26,000 deposited reagents. 167 of them (0.63%) were called active. 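Calls are per gene from RSA p-values that are not deposited; an individual active-marked siRNA can sensitise only weakly.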 Not all columns of the deposit are shown.
Gene,PubChem SID,log2 vehicle/camptothecin viability,outcome
RHOC,SID164354027,0.286,inactive
RHOC,SID164354029,-0.0925,inactive
RHOC,SID164354033,-0.302,inactive
HSF4,SID164370135,0.0251,inactive
HSF4,SID164370136,0.0224,inactive
HSF4,SID164370137,-0.112,inactive
HSF4,SID164370139,-0.107,inactive
AURKB,SID164402432,-0.283,inactive
AURKB,SID164402434,-0.545,inactive
AURKB,SID164402435,-0.354,inactive
AURKB,SID164402436,0.554,inactive
HIF1AN,SID164485838,-0.397,inactive
HIF1AN,SID164485839,0.136,inactive
HIF1AN,SID164485840,-0.141,inactive
TRIM41,SID164550642,-0.328,inactive
TRIM41,SID164550648,-0.379,inactive
TRIM41,SID164550649,-0.0491,inactive
TRIM41,SID164550650,-0.412,inactive
TNFSF11,SID164398609,0.5,inactive
TNFSF11,SID164398611,-0.488,inactive
TNFSF11,SID164398614,0.0653,inactive
TNFSF11,SID164398616,-0.415,inactive
ESRRB,SID164363779,-0.224,inactive
ESRRB,SID164363780,-0.167,inactive
ESRRB,SID164363784,-0.0432,inactive
MKNK2,SID164367506,-0.409,inactive
MKNK2,SID164367508,-0.227,inactive
MKNK2,SID164367510,-0.618,inactive
MKNK2,SID164367511,-0.595,inactive
THRAP3,SID164407747,-0.214,inactive
THRAP3,SID164407754,-0.288,inactive
THRAP3,SID164407756,-0.304,inactive
DEGS1,SID164398464,0.724,inactive
DEGS1,SID164398467,-0.417,inactive
DEGS1,SID164398469,-0.0205,inactive
DEGS1,SID164398472,0.0227,inactive
F9,SID164364106,0.00385,inactive
F9,SID164364108,-0.0635,inactive
F9,SID164364109,-0.0588,inactive
F9,SID164364110,-0.0113,inactive
SELP,SID164387571,-0.089,inactive
SELP,SID164387573,-0.186,inactive
SELP,SID164387575,-0.509,inactive
SELP,SID164387576,-0.0285,inactive
RNF183,SID164570917,-0.206,inactive
RNF183,SID164570919,-0.588,inactive
RNF183,SID164570920,-0.344,inactive
RNF183,SID164570921,-0.236,inactive
CRAMP1,SID164495133,0.0141,inactive
CRAMP1,SID164495135,-1.48,inactive
CRAMP1,SID164495136,-0.105,inactive
CRAMP1,SID164495137,-0.389,inactive
RNF43,SID164481308,-0.00437,inactive
RNF43,SID164481309,0.0882,inactive
RNF43,SID164481310,-0.322,inactive
RNF43,SID164481311,-0.0913,inactive
CCNT2,SID164356979,0.135,inactive
CCNT2,SID164356982,0.0121,inactive
CCNT2,SID164356986,-0.0722,inactive
PTPN6,SID164383876,-0.232,inactive
PTPN6,SID164383879,-0.31,inactive
PTPN6,SID164383880,0.0297,inactive
PTPN6,SID164383881,0.017,inactive
CTSH,SID164360490,-0.196,inactive
CTSH,SID164360492,-0.334,inactive
CTSH,SID164360494,0.221,inactive
CTSH,SID164360495,0.162,inactive
MUC3A,SID164496559,-0.575,inactive
MUC3A,SID174316006,-0.596,inactive
MUC3A,SID174316064,-0.258,inactive

Sorted by “log2 vehicle/camptothecin viability” (low to high): 3 of the entries above
Gene,PubChem SID,log2 vehicle/camptothecin viability,outcome
CRAMP1,SID164495135,-1.48,inactive
CRAMP1,SID164495137,-0.389,inactive
CRAMP1,SID164495136,-0.105,inactive
